# According to the supplement of paper PMC10849652:
# Sequences of proteins named here, by UniProt entry; tags and fusion partners are left off. A change or cut given only in a name is not applied to a line headed by its entry.
# UniProt Q96J92: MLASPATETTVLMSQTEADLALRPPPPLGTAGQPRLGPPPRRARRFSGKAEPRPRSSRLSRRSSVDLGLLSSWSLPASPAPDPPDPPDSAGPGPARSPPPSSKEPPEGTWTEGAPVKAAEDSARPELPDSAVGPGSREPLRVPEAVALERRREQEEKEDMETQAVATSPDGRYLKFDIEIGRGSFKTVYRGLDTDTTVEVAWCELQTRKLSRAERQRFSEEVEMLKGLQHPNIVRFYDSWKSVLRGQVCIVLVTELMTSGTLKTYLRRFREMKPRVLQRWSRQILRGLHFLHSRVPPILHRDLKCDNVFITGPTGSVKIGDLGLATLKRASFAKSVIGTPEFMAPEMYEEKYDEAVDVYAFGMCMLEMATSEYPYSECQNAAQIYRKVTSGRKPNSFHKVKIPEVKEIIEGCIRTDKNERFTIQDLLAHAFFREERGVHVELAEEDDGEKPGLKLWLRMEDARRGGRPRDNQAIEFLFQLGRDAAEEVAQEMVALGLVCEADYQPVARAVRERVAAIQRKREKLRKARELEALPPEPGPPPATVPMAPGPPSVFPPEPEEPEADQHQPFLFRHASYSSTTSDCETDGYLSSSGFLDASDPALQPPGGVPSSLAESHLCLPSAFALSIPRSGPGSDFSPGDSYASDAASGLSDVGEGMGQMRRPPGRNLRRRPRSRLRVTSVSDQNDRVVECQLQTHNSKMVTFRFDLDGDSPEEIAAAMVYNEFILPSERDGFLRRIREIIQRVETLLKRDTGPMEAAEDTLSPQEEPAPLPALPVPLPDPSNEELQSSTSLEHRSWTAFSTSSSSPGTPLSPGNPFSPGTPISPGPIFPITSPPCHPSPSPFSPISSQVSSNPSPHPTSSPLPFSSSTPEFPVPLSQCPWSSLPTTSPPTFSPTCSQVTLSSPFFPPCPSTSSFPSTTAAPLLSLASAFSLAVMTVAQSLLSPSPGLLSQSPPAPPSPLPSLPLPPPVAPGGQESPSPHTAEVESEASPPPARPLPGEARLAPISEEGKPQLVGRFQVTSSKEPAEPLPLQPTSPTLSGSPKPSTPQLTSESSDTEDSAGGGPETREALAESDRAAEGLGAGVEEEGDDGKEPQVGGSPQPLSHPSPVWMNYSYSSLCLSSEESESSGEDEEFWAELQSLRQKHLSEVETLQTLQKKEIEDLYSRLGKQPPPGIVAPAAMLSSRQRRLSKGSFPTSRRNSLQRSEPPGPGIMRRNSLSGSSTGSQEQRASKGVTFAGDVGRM
# UniProt A4D1P6: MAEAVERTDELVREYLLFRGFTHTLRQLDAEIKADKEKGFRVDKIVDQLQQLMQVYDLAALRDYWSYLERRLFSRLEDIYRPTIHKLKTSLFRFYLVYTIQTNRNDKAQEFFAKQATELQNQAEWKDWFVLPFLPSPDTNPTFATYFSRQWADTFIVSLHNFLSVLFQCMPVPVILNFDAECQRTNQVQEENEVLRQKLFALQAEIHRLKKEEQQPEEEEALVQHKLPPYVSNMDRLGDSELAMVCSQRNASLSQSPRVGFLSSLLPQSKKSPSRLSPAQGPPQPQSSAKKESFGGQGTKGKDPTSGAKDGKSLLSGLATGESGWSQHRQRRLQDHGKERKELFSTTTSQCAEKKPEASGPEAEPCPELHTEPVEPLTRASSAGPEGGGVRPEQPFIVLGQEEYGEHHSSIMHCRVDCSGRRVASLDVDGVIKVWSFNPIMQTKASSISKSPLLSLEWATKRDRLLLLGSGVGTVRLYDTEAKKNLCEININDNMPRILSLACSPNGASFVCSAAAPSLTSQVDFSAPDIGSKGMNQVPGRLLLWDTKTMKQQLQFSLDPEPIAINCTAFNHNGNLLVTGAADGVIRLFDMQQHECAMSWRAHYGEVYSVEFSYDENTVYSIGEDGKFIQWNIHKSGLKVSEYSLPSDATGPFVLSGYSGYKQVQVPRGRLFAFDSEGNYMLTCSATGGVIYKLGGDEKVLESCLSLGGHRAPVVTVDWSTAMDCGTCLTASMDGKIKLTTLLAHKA
# UniProt A5D8V6: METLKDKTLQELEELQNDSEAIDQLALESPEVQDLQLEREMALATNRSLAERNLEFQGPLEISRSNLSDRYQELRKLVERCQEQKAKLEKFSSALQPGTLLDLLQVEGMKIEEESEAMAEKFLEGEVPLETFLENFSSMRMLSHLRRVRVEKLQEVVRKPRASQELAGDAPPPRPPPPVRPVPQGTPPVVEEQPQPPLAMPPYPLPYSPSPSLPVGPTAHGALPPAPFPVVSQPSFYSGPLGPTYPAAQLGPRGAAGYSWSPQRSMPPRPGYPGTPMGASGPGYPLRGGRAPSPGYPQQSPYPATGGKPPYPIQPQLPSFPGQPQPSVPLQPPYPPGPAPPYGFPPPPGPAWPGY
# UniProt Q92558: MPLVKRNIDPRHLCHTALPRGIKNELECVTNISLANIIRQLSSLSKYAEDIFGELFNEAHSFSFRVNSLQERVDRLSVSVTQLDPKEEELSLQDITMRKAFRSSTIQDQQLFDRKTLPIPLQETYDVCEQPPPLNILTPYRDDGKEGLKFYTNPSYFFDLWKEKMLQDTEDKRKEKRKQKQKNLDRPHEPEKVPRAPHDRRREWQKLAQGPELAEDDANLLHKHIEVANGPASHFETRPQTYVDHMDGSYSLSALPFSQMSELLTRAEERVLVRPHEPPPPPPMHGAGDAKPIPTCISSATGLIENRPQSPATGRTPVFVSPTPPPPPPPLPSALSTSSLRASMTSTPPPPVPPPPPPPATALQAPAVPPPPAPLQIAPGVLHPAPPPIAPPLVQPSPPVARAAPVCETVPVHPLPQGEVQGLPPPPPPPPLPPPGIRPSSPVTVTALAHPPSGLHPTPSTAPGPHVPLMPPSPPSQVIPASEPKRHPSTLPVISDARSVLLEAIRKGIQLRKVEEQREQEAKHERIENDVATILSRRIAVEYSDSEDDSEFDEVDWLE
# UniProt Q8NEZ3: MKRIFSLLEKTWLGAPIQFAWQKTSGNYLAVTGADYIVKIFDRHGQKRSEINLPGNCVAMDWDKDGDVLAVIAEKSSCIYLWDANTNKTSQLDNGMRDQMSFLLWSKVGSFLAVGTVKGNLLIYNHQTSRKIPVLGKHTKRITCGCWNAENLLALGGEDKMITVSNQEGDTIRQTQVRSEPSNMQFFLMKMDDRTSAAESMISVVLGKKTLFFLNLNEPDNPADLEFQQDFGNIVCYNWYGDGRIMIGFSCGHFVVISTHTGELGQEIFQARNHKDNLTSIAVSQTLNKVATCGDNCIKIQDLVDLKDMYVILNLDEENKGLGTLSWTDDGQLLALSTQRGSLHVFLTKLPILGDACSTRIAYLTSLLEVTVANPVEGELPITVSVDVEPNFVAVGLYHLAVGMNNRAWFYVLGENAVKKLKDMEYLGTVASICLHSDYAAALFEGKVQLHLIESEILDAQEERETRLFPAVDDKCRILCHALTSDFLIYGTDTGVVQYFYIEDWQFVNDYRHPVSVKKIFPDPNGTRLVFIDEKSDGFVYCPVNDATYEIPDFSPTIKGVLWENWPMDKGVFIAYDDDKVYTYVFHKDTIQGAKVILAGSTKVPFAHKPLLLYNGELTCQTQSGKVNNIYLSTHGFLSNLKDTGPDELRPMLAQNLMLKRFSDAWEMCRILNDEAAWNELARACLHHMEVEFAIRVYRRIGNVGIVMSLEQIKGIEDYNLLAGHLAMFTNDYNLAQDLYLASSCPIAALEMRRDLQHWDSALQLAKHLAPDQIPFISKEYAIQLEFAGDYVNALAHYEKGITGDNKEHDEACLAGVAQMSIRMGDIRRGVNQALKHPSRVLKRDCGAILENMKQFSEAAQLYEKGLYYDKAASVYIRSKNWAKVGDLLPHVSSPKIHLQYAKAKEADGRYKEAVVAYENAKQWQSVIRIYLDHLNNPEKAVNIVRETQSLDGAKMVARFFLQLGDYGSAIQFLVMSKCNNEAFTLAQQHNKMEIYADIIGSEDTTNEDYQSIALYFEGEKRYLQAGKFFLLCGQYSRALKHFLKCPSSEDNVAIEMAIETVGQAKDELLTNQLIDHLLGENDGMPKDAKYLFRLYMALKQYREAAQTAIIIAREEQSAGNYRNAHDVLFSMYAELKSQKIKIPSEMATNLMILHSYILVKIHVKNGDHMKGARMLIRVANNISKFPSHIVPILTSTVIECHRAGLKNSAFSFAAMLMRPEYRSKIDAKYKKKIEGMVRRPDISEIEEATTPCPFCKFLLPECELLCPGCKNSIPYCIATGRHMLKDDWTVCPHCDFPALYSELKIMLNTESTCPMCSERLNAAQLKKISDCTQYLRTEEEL
# UniProt Q96P53: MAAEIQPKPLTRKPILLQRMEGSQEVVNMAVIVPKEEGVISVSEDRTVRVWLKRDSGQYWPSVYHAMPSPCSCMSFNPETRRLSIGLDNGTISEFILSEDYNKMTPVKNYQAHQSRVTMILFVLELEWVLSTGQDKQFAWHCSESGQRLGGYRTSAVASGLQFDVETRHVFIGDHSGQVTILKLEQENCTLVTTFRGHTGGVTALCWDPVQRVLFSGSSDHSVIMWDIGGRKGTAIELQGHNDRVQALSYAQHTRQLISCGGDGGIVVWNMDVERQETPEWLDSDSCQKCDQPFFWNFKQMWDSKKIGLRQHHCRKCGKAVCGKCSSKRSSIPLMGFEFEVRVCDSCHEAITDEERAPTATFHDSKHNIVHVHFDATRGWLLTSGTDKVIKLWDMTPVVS
# UniProt Q8IWA0: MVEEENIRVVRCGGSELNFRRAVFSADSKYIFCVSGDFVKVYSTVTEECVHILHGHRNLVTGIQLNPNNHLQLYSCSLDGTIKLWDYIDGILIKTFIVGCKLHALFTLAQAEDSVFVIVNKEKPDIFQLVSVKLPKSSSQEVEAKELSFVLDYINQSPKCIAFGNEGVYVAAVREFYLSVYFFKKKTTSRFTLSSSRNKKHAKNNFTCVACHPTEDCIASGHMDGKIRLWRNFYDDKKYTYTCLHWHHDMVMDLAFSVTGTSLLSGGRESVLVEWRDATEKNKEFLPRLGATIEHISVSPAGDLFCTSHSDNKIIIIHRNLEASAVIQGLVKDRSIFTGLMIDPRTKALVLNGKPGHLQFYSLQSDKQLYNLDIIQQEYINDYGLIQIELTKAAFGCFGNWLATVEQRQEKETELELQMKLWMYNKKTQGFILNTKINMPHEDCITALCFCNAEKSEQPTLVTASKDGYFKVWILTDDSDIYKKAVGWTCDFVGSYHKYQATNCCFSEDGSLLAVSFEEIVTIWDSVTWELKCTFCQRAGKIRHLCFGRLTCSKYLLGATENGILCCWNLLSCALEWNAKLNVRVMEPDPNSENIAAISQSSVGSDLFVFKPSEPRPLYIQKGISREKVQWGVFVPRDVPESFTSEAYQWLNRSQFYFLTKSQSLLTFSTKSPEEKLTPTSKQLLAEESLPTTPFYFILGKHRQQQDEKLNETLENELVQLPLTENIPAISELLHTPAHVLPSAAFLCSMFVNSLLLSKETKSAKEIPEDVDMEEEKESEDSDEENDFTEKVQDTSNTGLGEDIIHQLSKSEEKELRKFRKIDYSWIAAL
# UniProt Q9P1Q0: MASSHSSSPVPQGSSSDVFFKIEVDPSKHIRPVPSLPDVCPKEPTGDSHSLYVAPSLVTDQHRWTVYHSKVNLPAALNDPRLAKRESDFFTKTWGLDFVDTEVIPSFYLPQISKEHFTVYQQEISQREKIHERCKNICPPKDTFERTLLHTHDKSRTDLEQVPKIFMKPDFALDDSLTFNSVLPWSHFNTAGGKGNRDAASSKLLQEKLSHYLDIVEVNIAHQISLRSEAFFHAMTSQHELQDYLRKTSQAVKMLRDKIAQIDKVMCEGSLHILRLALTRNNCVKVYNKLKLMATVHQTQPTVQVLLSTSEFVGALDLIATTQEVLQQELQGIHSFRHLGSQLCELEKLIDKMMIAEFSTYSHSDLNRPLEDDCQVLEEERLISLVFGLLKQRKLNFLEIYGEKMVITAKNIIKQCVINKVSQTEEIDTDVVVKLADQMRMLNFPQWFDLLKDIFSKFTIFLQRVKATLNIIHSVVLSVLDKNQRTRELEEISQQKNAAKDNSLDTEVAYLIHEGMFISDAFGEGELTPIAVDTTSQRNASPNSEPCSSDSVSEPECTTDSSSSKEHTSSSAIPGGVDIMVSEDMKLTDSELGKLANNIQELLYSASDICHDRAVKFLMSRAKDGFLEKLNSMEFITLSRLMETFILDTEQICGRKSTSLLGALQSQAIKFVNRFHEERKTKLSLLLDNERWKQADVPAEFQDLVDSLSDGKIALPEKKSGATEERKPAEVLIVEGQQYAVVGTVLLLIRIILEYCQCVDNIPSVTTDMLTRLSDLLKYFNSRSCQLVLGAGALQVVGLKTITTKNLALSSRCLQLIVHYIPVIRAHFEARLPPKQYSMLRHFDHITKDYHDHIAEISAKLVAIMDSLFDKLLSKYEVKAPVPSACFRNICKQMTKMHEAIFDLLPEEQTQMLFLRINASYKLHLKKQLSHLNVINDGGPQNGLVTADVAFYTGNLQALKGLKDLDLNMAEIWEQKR
# This is one part of the list.
# Compound: NCC(=O)Nc1ccc(-n2nc(C(F)(F)F)cc2-c2ccc3c(ccc4ccccc43)c2)cc1
# Assay: log2 fold change, soluble protein after heating vs DMSO (PISA); higher = thermal stabilisation; K562 cells, 10 uM, 30 min; active = over 0.2 and 3.5 SD of the protein, either way, in both replicates (recomputed)
# How it was run: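 Thermal stability values are relative to control samples and come from duplicates. They are expressed as log2 fold changes. For measurement, K562 cells (2×10^6 cells/mL) received 10 μM compound for 30 min, and aliquots were heated for 3 min over 48°C-58°C, pooled, and extracted at 4°C in PBS with 0.5% NP-40. Soluble protein, the supernatant after 21,000xg for 90 min, was quantified by TMTpro 16plex LC-MS/MS with equalised channel sums.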
row,Target,log2 fold change
1,WNK4 (UniProt Q96J92),inactive: -0.503
2,WDR91 (UniProt A4D1P6),inactive: -0.15
3,WARS1 (UniProt G3V227),inactive: -0.115
4,VPS37C (UniProt A5D8V6),inactive: -0.016
5,WASF1 (UniProt Q92558),inactive: -0.003
6,WDR19 (UniProt Q8NEZ3),inactive: -0.212
7,WDFY2 (UniProt Q96P53),inactive: 0.002
8,"WDR46, A0A0G2JJL1",inactive: 0.146
9,VEGFA (UniProt H0YBI8),inactive: 0.058
10,WDR75 (UniProt Q8IWA0),inactive: -0.125
11,"VPS35, A0A1W2PP10",inactive: -0.199
12,VPS54 (UniProt Q9P1Q0),inactive: -0.019
13,VWA3B isoform 6 (UniProt Q502W6),inactive: -0.059

# Quoted from the listing:
# WNK4 (UniProt Q96J92) | log2 fold change: inactive: -0.503
# VPS35, A0A1W2PP10 | log2 fold change: inactive: -0.199
